14 targets from the supplement of paper PMC12067093, “Discovery and optimisation of a covalent ligand for TRIM25 and its application to targeted protein ubiquitination” (Chemical Science, 2025) can be followed below.

The chains behind the UniProt entries cited, without tags or fusion partners. Where a name states a change or a piece, a line headed by the entry shows the natural chain unless it says otherwise.
UniProt P51858: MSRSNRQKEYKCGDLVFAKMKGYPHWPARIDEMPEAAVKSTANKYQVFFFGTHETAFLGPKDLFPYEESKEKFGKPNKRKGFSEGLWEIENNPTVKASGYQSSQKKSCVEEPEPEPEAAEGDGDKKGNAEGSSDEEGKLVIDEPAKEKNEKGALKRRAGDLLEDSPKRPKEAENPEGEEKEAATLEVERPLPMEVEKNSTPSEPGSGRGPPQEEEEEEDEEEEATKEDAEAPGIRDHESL
UniProt Q5GLZ8: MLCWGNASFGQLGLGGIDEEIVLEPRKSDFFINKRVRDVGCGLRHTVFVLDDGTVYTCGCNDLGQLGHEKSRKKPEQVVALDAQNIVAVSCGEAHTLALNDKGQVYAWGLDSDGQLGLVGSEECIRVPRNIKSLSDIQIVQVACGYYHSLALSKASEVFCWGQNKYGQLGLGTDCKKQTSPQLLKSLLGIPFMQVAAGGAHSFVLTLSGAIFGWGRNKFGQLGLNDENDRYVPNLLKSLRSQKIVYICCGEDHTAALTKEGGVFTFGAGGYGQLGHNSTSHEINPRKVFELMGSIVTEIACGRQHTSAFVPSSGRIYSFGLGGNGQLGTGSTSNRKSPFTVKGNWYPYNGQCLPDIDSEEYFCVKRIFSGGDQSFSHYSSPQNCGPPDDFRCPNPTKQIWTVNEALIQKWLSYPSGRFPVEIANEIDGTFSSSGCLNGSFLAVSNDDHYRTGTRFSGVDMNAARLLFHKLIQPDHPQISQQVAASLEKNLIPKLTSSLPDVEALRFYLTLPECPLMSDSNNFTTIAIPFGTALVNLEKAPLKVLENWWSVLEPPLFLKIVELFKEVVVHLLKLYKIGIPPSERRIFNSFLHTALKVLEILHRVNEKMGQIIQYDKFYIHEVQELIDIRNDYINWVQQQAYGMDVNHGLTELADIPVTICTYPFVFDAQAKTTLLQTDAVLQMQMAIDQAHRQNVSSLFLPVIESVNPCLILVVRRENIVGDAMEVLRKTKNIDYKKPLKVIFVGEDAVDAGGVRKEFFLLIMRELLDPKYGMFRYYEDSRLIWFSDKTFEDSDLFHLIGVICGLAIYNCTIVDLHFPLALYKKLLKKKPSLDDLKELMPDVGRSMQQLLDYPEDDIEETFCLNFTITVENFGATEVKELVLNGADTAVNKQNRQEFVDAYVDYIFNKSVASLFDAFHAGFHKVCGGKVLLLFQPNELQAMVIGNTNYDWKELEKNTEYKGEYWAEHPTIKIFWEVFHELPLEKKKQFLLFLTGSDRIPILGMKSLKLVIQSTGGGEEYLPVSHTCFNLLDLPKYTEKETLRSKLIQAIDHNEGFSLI
UniProt P04229, whole entry, looked up: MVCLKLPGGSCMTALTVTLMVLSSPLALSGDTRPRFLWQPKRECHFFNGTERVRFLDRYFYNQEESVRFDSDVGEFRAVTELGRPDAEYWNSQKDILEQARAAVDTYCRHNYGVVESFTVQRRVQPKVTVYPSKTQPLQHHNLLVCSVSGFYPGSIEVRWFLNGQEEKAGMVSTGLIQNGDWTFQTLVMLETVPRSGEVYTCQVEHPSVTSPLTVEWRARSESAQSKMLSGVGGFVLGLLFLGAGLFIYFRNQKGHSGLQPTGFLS
UniProt P08631: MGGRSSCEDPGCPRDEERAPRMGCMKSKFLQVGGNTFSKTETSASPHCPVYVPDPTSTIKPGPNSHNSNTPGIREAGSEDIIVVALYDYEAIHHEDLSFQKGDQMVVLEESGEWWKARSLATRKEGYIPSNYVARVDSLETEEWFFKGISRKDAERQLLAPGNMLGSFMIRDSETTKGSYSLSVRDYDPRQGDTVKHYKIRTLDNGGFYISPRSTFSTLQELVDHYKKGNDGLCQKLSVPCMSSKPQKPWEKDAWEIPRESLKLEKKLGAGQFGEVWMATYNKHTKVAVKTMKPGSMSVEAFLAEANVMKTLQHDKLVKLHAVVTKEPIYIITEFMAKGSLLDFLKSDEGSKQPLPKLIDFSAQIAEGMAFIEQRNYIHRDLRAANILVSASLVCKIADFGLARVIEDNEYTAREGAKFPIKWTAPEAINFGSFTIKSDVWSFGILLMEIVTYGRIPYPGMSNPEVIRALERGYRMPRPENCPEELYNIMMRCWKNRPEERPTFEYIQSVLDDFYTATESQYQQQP
UniProt Q969S8: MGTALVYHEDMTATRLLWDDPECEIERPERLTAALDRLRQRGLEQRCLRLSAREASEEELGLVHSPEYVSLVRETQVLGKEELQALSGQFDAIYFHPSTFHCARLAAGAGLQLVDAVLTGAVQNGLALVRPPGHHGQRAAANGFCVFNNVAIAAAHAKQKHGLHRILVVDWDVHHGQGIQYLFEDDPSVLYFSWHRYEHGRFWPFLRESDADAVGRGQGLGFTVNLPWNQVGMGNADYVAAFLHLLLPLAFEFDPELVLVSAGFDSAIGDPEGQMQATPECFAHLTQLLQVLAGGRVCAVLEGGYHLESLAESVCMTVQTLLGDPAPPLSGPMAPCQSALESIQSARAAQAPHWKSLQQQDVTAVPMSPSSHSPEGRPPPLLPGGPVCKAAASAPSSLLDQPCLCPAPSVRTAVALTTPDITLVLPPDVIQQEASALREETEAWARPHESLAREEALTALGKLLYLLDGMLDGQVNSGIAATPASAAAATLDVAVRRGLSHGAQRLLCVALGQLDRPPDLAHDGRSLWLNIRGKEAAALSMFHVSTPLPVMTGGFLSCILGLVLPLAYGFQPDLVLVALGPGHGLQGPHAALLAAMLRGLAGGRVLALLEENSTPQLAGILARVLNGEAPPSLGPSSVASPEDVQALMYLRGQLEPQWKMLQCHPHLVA
UniProt Q9NQE9: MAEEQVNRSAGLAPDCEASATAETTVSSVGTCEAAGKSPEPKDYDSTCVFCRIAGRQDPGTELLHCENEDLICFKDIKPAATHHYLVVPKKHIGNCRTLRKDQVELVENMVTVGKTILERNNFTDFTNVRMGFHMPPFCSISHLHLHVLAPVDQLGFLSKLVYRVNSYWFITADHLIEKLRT
UniProt P51610: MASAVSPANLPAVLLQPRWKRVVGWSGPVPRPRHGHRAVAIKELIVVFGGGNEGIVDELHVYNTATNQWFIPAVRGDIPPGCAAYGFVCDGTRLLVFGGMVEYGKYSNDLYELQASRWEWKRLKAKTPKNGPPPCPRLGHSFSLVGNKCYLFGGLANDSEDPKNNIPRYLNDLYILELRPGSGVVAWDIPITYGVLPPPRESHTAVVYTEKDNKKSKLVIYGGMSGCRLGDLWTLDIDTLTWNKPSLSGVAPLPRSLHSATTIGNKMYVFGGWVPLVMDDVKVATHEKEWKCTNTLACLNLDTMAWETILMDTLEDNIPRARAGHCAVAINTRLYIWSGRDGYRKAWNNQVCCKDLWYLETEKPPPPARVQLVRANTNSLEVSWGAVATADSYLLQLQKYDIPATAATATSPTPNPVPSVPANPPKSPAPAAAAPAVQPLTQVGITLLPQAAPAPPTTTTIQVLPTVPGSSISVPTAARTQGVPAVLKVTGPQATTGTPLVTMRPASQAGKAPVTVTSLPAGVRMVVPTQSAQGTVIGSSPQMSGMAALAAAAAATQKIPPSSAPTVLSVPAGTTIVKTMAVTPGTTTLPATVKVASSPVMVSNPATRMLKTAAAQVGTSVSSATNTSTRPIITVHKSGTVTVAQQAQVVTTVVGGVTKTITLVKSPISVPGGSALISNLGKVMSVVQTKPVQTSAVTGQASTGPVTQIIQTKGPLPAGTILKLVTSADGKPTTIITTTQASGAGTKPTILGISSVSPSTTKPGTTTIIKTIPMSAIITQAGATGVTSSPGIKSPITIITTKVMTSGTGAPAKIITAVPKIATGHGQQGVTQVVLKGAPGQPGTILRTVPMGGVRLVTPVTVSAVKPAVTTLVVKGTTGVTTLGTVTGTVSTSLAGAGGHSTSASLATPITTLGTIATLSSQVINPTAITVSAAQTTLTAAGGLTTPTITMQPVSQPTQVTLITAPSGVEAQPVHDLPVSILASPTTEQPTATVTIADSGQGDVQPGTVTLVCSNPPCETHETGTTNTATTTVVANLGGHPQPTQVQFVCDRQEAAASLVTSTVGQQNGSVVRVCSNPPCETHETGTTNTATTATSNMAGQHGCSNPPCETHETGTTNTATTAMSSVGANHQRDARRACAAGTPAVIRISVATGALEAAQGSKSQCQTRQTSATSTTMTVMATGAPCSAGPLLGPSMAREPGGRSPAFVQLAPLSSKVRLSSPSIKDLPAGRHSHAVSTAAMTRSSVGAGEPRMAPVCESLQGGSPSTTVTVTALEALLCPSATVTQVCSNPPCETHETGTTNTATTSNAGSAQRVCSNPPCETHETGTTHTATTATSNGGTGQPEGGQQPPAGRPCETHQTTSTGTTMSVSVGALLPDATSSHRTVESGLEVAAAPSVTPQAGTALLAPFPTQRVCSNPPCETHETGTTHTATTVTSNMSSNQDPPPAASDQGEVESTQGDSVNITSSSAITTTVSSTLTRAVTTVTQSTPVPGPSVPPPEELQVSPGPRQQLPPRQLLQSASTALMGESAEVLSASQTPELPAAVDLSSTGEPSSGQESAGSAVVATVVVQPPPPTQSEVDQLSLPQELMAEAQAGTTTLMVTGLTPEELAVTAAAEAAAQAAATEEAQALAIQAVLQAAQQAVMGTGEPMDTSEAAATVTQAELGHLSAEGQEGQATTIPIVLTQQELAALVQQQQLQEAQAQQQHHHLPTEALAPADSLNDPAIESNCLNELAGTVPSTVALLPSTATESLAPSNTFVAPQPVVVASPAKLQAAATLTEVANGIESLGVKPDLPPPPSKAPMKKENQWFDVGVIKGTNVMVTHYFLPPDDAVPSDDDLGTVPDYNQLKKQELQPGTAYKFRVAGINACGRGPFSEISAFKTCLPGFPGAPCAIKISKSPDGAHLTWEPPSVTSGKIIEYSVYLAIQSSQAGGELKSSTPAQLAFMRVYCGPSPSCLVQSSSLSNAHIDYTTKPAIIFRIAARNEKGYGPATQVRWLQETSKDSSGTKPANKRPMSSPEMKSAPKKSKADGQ
UniProt Q96MH2: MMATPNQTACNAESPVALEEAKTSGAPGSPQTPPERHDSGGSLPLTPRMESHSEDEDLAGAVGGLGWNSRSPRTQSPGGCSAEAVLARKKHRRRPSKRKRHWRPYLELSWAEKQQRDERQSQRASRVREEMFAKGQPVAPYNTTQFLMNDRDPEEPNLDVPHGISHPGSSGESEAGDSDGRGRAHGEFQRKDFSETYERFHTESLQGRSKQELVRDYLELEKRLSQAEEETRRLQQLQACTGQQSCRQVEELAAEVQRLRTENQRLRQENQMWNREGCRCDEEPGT
UniProt Q6AI08: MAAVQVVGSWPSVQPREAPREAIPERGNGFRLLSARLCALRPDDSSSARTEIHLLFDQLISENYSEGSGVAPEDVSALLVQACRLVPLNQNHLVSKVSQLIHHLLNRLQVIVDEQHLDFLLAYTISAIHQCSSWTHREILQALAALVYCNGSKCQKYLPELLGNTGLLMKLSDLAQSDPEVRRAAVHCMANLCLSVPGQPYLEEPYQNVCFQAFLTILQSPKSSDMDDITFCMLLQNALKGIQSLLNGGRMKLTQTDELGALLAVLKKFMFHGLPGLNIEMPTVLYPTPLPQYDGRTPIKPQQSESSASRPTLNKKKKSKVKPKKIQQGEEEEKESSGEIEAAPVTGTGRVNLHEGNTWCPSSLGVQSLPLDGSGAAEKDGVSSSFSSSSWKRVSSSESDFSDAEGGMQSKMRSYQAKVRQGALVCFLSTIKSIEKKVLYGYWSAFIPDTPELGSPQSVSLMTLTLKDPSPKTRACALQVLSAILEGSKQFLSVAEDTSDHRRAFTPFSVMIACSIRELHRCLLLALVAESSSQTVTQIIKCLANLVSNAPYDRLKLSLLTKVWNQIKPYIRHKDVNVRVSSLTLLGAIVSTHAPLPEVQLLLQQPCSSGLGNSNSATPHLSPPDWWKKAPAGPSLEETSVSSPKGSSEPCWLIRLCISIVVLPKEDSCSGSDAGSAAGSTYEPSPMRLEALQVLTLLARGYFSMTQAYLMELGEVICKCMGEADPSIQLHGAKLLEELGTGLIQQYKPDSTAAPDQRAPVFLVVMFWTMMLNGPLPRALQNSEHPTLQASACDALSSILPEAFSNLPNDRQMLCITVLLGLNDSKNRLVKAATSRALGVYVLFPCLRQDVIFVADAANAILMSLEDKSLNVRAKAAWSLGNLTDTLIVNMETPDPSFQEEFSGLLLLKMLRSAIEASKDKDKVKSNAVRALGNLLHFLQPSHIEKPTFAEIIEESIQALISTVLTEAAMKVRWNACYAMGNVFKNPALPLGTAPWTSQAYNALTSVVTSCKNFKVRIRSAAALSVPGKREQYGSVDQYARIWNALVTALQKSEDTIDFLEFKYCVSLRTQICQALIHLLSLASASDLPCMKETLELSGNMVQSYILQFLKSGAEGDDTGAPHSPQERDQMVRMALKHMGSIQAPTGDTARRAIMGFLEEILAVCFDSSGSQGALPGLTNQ

Compound in this test: Cc1cc(ccc1-c1ccccc1)C(=O)N1CCCN(CC1)C(=O)CCl [compound 10]
Put plainly: probe-labelled cysteine peptide fold change vs DMSO (competition) (log2 fold change); higher = less target engagement (more negative = stronger competition). As to conditions: THP-1, incubation time: 4 h.

The list shows a part of the results.
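Also: competitive profiling in live THP-1 cells: cysteine peptides tagged with an iodoacetamide desthiobiotin (IA-DTB) probe, intensity after compound treatment relative to DMSO-treated cells.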

Turning to “HDGF_P51858_12_CGDLVFAK (UniProt P51858)”, the “probe-labelled cysteine peptide fold change” value is, setting by setting: (10 µM) -0.289; (50 µM) -0.21.
In the case of “HERC2_O95714_4204_VECGSQFSVALTK (UniProt O95714)”, the “probe-labelled cysteine peptide fold change” value runs as follows: (10 µM) 0.102; (50 µM) 0.122.
The corresponding values for “HERC4_Q5GLZ8_175_YGQLGLGTDCK (UniProt Q5GLZ8)” are -0.052 and -0.122.
For “HLA-DRB1_P04229_59_CIYNQEESVRFDSDVGEYR (UniProt P04229)”, in that order: 0.231 and 0.0126.
The corresponding values for “HCK_P08631_234_GNDGLCQK (UniProt P08631)” are -0.166 and -0.0705.
Regarding “HDAC10_Q969S8_663_MLQCHPHLVA (UniProt Q969S8)”, the “probe-labelled cysteine peptide fold change” value is -0.0368 (10 µM) and -0.2 (50 µM).
On to “HERC4_Q5GLZ8_144_SLSDIQIVQVACGYYHSLALSK (UniProt Q5GLZ8)”, for which the “probe-labelled cysteine peptide fold change” value is -0.071 (10 µM) and -0.313 (50 µM).
Take “HINT3_Q9NQE9_66+73_QDPGTELLHCENEDLICFK (UniProt Q9NQE9)”: the “probe-labelled cysteine peptide fold change” value is, setting by setting: (10 µM) -0.386; (50 µM) -0.532.
With “HCFC1_P51610_1872_VAGINACGR (UniProt P51610)”, the “probe-labelled cysteine peptide fold change” value runs as follows: (10 µM) -0.152; (50 µM) -0.0638.
On to “HEXIM2_Q96MH2_80_TQSPGGCSAEAVLAR (UniProt Q96MH2)”, for which the “probe-labelled cysteine peptide fold change” value (10 µM) was -0.0675 and the “probe-labelled cysteine peptide fold change” value (50 µM) is -0.314.
For “HEATR6_Q6AI08_426_QGALVCFLSTIK (UniProt Q6AI08)”, in that order: 0.00641 and 0.0825.
The corresponding values for “HDGFL2_Q7Z4V5_496_CLNALEELGTLQVTSQILQK (UniProt Q7Z4V5)” are 0.306 and 0.177.
For “HECA_Q9UBI9_434_ALPVFEQFPLVDGTLFLSPSRHDEIEYDVPCHLQGR (UniProt Q9UBI9)”, in that order: 0.516 and -0.356.
As for HLA-DRA_P01903_188_FHYLPFLPSTEDVYDCR, the “probe-labelled cysteine peptide fold change” value by setting is: (10 µM) 0.101; (50 µM) 0.278.
